Patent US9669050B2, “Composition for prevention or treatment of hyperlipidemia, fatty liver or obesity” (BENEBIOSIS CO., LTD., priority 2008, dated 2017)

Tests used:
[1] = system: high-fat diet SD rats; assay: Body weight change, food and water intake of high-fat diet rats; format: in vivo, rat; conditions: orally administered every day
Method: 4 week-old Sprague-Dawley (SD) rats were purchased from Dooyeul Biotech (Korea). Water was allowed freely and commercially available pellet feed (Dooyeul Biotech, Korea) was given for a week. The rats were grouped into four groups (six per each group) as follows: ND, normal diet group (normal group); HD, high-fat (60% fat) diet [purchased from Research Diets (New Brunswick, USA)] group (control group); and HD+SL (1 mg/kg) and HD+SL (5 mg/kg), high-fat diet groups treated with SL (Sigma). 3′-SL or deionized water (DW) was orally administered every day. The mice were kept in cages for 7 weeks and sacrificed after fasting for 12 hours. Food intake and body weight change were measured every 5 days.

[2] = system: high-fat diet C56BL/6 male mice; assay: Body weight change and food intake of high-fat diet mice; format: in vivo, mouse; conditions: peritoneal injection every day
Method: 4 week-old C56BL/6 male mice were purchased from Dooyeul Biotech (Korea). Water was allowed freely and commercially available pellet feed (Dooyeul Biotech, Korea) was given for a week. The mice were grouped into six groups (six per each group) as follows: ND, normal diet group (normal group); HD, high-fat (60% fat) diet [purchased from Research Diets (New Brunswick, USA)] group (control group); and HD+SL (0.1 mg/kg), HD+SL (0.5 mg/kg), HD+SL (1.0 mg/kg) and HD+SL (5.0 mg/kg), high-fat diet groups treated with sialyllactose (SL, Sigma). Sialyllactose or PBS was administered every day by peritoneal injection. The mice were kept in cages for 50 days and sacrificed after fasting for 12 hours. Food intake and body weight change were measured every 7 days. 3′-Sialyllactose (3′-N-acetylneuraminyl-D-lactose, 3′-sialyl-D-lactose or α-NeuNAc-(2→3)-β-D-Gal-(1→4)-D-Glc) and 6′-sialyllactose (6′-N-acetylneuraminyl-lactose, 6′-sialyl-D-lactose or α-NeuNAc-(2→6)-β-D-Gal-(1→4)-D-Glc) were purchased from Sigma-Aldrich.

| SMILES | Food intake ([1]; HD + SL 1.0 mg/kg) [g/day] | Water intake ([1]; HD + SL 1.0 mg/kg) [mL/day] | Food intake ([1]; HD + SL 5.0 mg/kg) [g/day] | Water intake ([1]; HD + SL 5.0 mg/kg) [mL/day] | Food intake ([2]; HD + SL 0.1 mg/kg) | Food intake ([2]; HD + SL 0.5 mg/kg) | Food intake ([2]; HD + SL 1.0 mg/kg) | Food intake ([2]; HD + SL 5.0 mg/kg) |
| --- | --- | --- | --- | --- | --- | --- | --- | --- |
| CC(=O)N[C@H]1[C@H]([C@H](O)[C@H](O)CO)O[C@@](O[C@H]2[C@@H](O)[C@@H](CO)O[C@@H](O[C@H]3[C@H](O)[C@@H](O)C(O)O[C@@H]3CO)[C@@H]2O)(C(=O)O)C[C@@H]1O (stereo partly drawn) [3′-SL, α-NeuNAc-(2→3)-β-D-Gal-(1→4)-D-Glc] | 23.46 ± 0.82 | 54.27 ± 2.53 | 24.08 ± 1.22 | 55.36 ± 3.32 | 2.31 ± 0.13 | 2.30 ± 0.17 | 2.28 ± 0.13 | 2.27 ± 0.18 |
| CC(=O)N[C@H]1[C@H]([C@H](O)[C@H](O)CO)O[C@@](OC[C@H]2O[C@@H](O[C@H]3[C@H](O)[C@@H](O)[C@H](O)O[C@@H]3CO)[C@H](O)[C@@H](O)[C@H]2O)(C(=O)O)C[C@@H]1O [6′-SL, α-NeuNAc-(2→6)-β-D-Gal-(1→4)-D-Glc] | – | – | – | – | 2.68 ± 0.13(*) | 2.56 ± 0.21(*) | 2.31 ± 0.21(*) | 2.62 ± 0.11(*) |
